# Results published in paper PMC5414174, “DNA replication licensing factor Cdc6 and Plk4 kinase antagonistically regulate centrosome duplication via Sas-6” (Nature Communications, 2017).
# Results are given in words; binding and its absence hold for the method and conditions named. In cells and extracts the contact can be indirect. Some entries that bind do so weakly or less than the wild type.
# T1: endogenous Cdc6 (human (endogenous in HEK293)) (UniProt Q99741)
# T1 sequence: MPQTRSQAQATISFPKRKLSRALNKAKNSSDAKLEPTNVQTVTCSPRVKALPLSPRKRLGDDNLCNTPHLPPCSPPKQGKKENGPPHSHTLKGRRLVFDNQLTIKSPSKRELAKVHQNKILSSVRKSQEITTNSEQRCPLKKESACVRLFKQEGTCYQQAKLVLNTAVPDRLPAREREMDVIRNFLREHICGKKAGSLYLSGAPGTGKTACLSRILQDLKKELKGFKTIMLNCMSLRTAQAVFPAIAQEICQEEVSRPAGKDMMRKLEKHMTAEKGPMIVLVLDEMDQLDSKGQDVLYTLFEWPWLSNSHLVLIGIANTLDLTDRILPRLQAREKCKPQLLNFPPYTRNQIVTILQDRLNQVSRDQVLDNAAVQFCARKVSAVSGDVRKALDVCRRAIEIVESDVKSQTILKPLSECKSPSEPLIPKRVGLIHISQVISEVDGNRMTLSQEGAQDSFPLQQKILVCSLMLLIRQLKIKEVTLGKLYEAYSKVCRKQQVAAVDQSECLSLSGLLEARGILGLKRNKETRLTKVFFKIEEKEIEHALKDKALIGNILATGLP
# T2: endogenous Sas-6 (human (endogenous in HEK293)) (UniProt Q6UVJ0)
# T2 sequence: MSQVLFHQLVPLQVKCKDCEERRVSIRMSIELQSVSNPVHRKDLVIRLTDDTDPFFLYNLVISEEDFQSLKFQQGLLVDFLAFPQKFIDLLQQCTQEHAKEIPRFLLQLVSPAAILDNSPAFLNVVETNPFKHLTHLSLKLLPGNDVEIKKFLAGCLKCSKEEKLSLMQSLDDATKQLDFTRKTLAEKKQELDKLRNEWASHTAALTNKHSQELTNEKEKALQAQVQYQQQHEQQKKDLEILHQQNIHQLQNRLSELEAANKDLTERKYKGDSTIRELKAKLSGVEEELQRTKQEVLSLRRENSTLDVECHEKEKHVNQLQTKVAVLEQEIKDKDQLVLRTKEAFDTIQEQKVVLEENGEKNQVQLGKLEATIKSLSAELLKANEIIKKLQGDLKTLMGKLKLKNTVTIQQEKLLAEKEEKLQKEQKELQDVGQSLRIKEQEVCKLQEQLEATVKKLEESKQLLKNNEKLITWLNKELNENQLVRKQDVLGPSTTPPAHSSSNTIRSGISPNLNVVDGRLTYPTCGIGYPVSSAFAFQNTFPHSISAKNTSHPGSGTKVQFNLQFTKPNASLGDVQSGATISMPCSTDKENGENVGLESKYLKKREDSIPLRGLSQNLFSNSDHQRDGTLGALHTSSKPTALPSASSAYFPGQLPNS
# Legend:
# [1] = molecular target: T1, endogenous Cdc6 (human (endogenous in HEK293)); test: co-IP; endogenous proteins, HEK293 total cell extract, IP with Cdc6 antibody (reciprocal with Sas-6 as bait per the text); in Fig. 7a HEK 293 T cells with control or Plk4 siRNA
# [2] = molecular target: T2, endogenous Sas-6 (human (endogenous in HEK293)); test: as above
binding [1],binding [2],Binder
binds,–,"endogenous Sas-6 (protein, UniProt Q6UVJ0 1-657) MSQVLFHQLVPLQVKCKDCEERRVSIRMSIELQSVSNPVHRKDLVIRLTDDTDPFFLYNLVISEEDFQSLKFQQGLLVDFLAFPQKFIDLLQQCTQEHAKEIPRFLLQLVSPAAILDNSPAFLNVVETNPFKHLTHLSLKLLPGNDVEIKKFLAGCLKCSKEEKLSLMQSLDDATKQLDFTRKTLAEKKQELDKLRNEWASHTAALTNKHSQELTNEKEKALQAQVQYQQQHEQQKKDLEILHQQNIHQLQNRLSELEAANKDLTERKYKGDSTIRELKAKLSGVEEELQRTKQEVLSLRRENSTLDVECHEKEKHVNQLQTKVAVLEQEIKDKDQLVLRTKEAFDTIQEQKVVLEENGEKNQVQLGKLEATIKSLSAELLKANEIIKKLQGDLKTLMGKLKLKNTVTIQQEKLLAEKEEKLQKEQKELQDVGQSLRIKEQEVCKLQEQLEATVKKLEESKQLLKNNEKLITWLNKELNENQLVRKQDVLGPSTTPPAHSSSNTIRSGISPNLNVVDGRLTYPTCGIGYPVSSAFAFQNTFPHSISAKNTSHPGSGTKVQFNLQFTKPNASLGDVQSGATISMPCSTDKENGENVGLESKYLKKREDSIPLRGLSQNLFSNSDHQRDGTLGALHTSSKPTALPSASSAYFPGQLPNS"
binds,–,"endogenous Plk4 (enzyme, UniProt O00444 1-970) MATCIGEKIEDFKVGNLLGKGSFAGVYRAESIHTGLEVAIKMIDKKAMYKAGMVQRVQNEVKIHCQLKHPSILELYNYFEDSNYVYLVLEMCHNGEMNRYLKNRVKPFSENEARHFMHQIITGMLYLHSHGILHRDLTLSNLLLTRNMNIKIADFGLATQLKMPHEKHYTLCGTPNYISPEIATRSAHGLESDVWSLGCMFYTLLIGRPPFDTDTVKNTLNKVVLADYEMPSFLSIEAKDLIHQLLRRNPADRLSLSSVLDHPFMSRNSSTKSKDLGTVEDSIDSGHATISTAITASSSTSISGSLFDKRRLLIGQPLPNKMTVFPKNKSSTDFSSSGDGNSFYTQWGNQETSNSGRGRVIQDAEERPHSRYLRRAYSSDRSGTSNSQSQAKTYTMERCHSAEMLSVSKRSGGGENEERYSPTDNNANIFNFFKEKTSSSSGSFERPDNNQALSNHLCPGKTPFPFADPTPQTETVQQWFGNLQINAHLRKTTEYDSISPNRDFQGHPDLQKDTSKNAWTDTKVKKNSDASDNAHSVKQQNTMKYMTALHSKPEIIQQECVFGSDPLSEQSKTRGMEPPWGYQNRTLRSITSPLVAHRLKPIRQKTKKAVVSILDSEEVCVELVKEYASQEYVKEVLQISSDGNTITIYYPNGGRGFPLADRPPSPTDNISRYSFDNLPEKYWRKYQYASRFVQLVRSKSPKITYFTRYAKCILMENSPGADFEVWFYDGVKIHKTEDFIQVIEKTGKSYTLKSESEVNSLKEEIKMYMDHANEGHRICLALESIISEEERKTRSAPFFPIIIGRKPGSTSSPKALSPPPSVDSNYPTRERASFNRMVMHSAASPTQAPILNPSMVTNEGLGLTTTASGTDISSNSLKDCLPKSAQLLKSVFVKNVGWATQLTSGAVWVQFNDGSQLVVQAGVSSISYTSPNGQTTRYGENEKLPDYIKQKLQCLSSILLMFSNPTPNFH"
no binding,–,"endogenous STIL (protein, UniProt Q15468 1-1287) MEPIYPFARPQMNTRFPSSRMVPFHFPPSKCALWNPTPTGDFIYLHLSYYRNPKLVVTEKTIRLAYRHAKQNKKNSSCFLLGSLTADEDEEGVTLTVDRFDPGREVPECLEITPTASLPGDFLIPCKVHTQELCSREMIVHSVDDFSSALKALQCHICSKDSLDCGKLLSLRVHITSRESLDSVEFDLHWAAVTLANNFKCTPVKPIPIIPTALARNLSSNLNISQVQGTYKYGYLTMDETRKLLLLLESDPKVYSLPLVGIWLSGITHIYSPQVWACCLRYIFNSSVQERVFSESGNFIIVLYSMTHKEPEFYECFPCDGKIPDFRFQLLTSKETLHLFKNVEPPDKNPIRCELSAESQNAETEFFSKASKNFSIKRSSQKLSSGKMPIHDHDSGVEDEDFSPRPIPSPHPVSQKISKIQPSVPELSLVLDGNFIESNPLPTPLEMVNNENPPLINHLEHLKPLQPQLYDEKHSPEVEAGEPSLRGIPNQLNQDKPALLRHCKVRQPPAYKKGNPHTRNSIKPSSHNGPSHDIFEKLQTVSAGNVQNEEYPIRPSTLNSRQSSLAPQSQPHDFVFSPHNSGRPMELQIPTPPLPSYCSTNVCRCCQHHSHIQYSPLNSWQGANTVGSIQDVQSEALQKHSLFHPSGCPALYCNAFCSSSSPIALRPQGDMGSCSPHSNIEPSPVARPPSHMDLCNPQPCTVCMHTPKTESDNGMMGLSPDAYRFLTEQDRQLRLLQAQIQRLLEAQSLMPCSPKTTAVEDTVQAGRQMELVSVEAQSSPGLHMRKGVSIAVSTGASLFWNAAGEDQEPDSQMKQDDTKISSEDMNFSVDINNEVTSLPGSASSLKAVDIPSFEESNIAVEEEFNQPLSVSNSSLVVRKEPDVPVFFPSGQLAESVSMCLQTGPTGGASNNSETSEEPKIEHVMQPLLHQPSDNQKIYQDLLGQVNHLLNSSSKETEQPSTKAVIISHECTRTQNVYHTKKKTHHSRLVDKDCVLNATLKQLRSLGVKIDSPTKVKKNAHNVDHASVLACISPEAVISGLNCMSFANVGMSGLSPNGVDLSMEANAIALKYLNENQLSQLSVTRSNQNNCDPFSLLHINTDRSTVGLSLISPNNMSFATKKYMKRYGLLQSSDNSEDEEEPPDNADSKSEYLLNQNLRSIPEQLGGQKEPSKNDHEIINCSNCESVGTNADTPVLRNITNEVLQTKAKQQLTEKPAFLVKNLKPSPAVNLRTGKAEFTQHPEKENEGDITIFPESLQPSETLKQMNSMNSVGTFLDVKRLRQLPKLF"
–,binds,"endogenous Cdc6 (protein, UniProt Q99741 1-560) MPQTRSQAQATISFPKRKLSRALNKAKNSSDAKLEPTNVQTVTCSPRVKALPLSPRKRLGDDNLCNTPHLPPCSPPKQGKKENGPPHSHTLKGRRLVFDNQLTIKSPSKRELAKVHQNKILSSVRKSQEITTNSEQRCPLKKESACVRLFKQEGTCYQQAKLVLNTAVPDRLPAREREMDVIRNFLREHICGKKAGSLYLSGAPGTGKTACLSRILQDLKKELKGFKTIMLNCMSLRTAQAVFPAIAQEICQEEVSRPAGKDMMRKLEKHMTAEKGPMIVLVLDEMDQLDSKGQDVLYTLFEWPWLSNSHLVLIGIANTLDLTDRILPRLQAREKCKPQLLNFPPYTRNQIVTILQDRLNQVSRDQVLDNAAVQFCARKVSAVSGDVRKALDVCRRAIEIVESDVKSQTILKPLSECKSPSEPLIPKRVGLIHISQVISEVDGNRMTLSQEGAQDSFPLQQKILVCSLMLLIRQLKIKEVTLGKLYEAYSKVCRKQQVAAVDQSECLSLSGLLEARGILGLKRNKETRLTKVFFKIEEKEIEHALKDKALIGNILATGLP"
